Measured values: patent EP1165099B1, “ANGIOTENSIN II AND ANALOGS THEREOF FOR LIMITING SCAR AND ADHESION FORMATION” (UNIVERSITY OF SOUTHERN CALIFORNIA, priority 1999, dated 2006)
At least one peptide structure holds a part that was inferred or is arguable (an end, a ring closure or a residue). Square brackets hold non-standard residues; d marks the D form. Peptide text beside a SMILES is read from it. Nle = CCCC[C@H](N)C(=O)O

How the values were obtained:
[1] = tested on: full thickness incision wounds; test: Rat full thickness incision model (Example 2); format: in vivo, Sprague Dawley rats; details: for early inflammation and wound dehiscence / overall scar formation / number of incisions that were free of scar: administered into the subcutaneous space prior to closure with DermaBond; for early inflammation and wound dehiscence: Figure 1, day 5; for overall scar formation: Figure 3, scar score rank, days 14 and 19; for number of incisions that were free of scar: later time points, Figure 2, days 14, 19, 21; for healing time: repeated systemic administration (especially pretreatment with 100 µg/kg body weight/day of 9GD), Figures 4-6; for number of incisions with no scar by gross observations: repeated systemic administration, Figures 7-9, days 14 and 21
[2] = Unspecified effectiveness test of AII fragments; details: test not described
2 cm incision = test: Anti-scarring effect after laparotomy incision in rats (Example 1); format: in vivo, Female Sprague Dawley rats; details: 100 µg/kg/day subcutaneously, 3 days prior to surgery and then 11 days until necropsy; 11 day post-operative observation
[3] = single dose in CMC in the subcutaneous space, Figure 10, days 3 and 7
[4] = single dose in CMC in the subcutaneous space, Figure 11, days 14 and 21
[5] = single dose of the peptides (systemic)

Question: Which “early inflammation and wound dehiscence” value [1] does the source give for `CC[C@H](C)[C@H](NC(=O)[C@H](Cc1ccc(O)cc1)NC(=O)[C@@H](NC(=O)[C@H](CCCNC(=N)N)NC(=O)[C@@H](N)CC(=O)O)C(C)C)C(=O)N[C@@H](Cc1c[nH]cn1)C(=O)N1CCC[C@H]1C(=O)O` [AII(1-7), Asp-Arg-Val-Tyr-Ile-His-Pro] here?
Answer: The value was “reduced”.

Question: And the overall scar formation [1]?
Answer: Its overall scar formation is “increased”.

Question: What about the “number of incisions that were free of scar” value [1] of the same compound?
Answer: Its value is “increased”.

Question: What about the healing time [1] of the same compound?
Answer: Its healing time is “accelerated”.

Question: And the “number of incisions with no scar by gross observations” value [1]?
Answer: The value was “increased”.

Question: And the healing [1, 3]?
Answer: The healing was “accelerated healing”.

Question: And the scar formation [1, 4]?
Answer: Its scar formation is “reduced scar formation”.

Question: And the healing [1, 5]?
Answer: Its healing is “did not accelerate healing”.

Question: What about the scar formation [1, 5] of the same compound?
Answer: The scar formation was “did reduce scar formation”.

Question: For `N[C@@H](Cc1c[nH]cn1)C(=O)N1CCC[C@H]1C(=O)N[C@@H](Cc1ccccc1)C(=O)O` [AII(6-8), His-Pro-Phe] (H-His-Pro-Phe-OH), which effectiveness [2] is on record?
Answer: Its effectiveness is “not to be effective”.

Question: With `CC[C@H](C)[C@H](NC(=O)[C@H](Cc1ccc(O)cc1)NC(=O)[C@H](CCCCN)NC(=O)[C@H](CCCNC(=N)N)NC(=O)[C@@H](N)CC(=O)O)C(=O)N[C@@H](Cc1c[nH]cn1)C(=O)N1CCC[C@H]1C(=O)O` [5GD, DRKYIHP] (H-DRKYIHP-OH) as the compound, how does the “scar upon gross observation” value (2 cm incision) read?
Answer: The value was “no scar was apparent”.

Question: And the wound closure (2 cm incision)?
Answer: Its wound closure is “complete”.

Question: What does the source list for `CCCC[C@H](NC(=O)[C@H](CCCNC(=N)N)NC(=O)[C@@H](N)CC(=O)O)C(=O)N[C@@H](Cc1ccc(O)cc1)C(=O)N[C@H](C(=O)N[C@@H](Cc1c[nH]cn1)C(=O)N1CCC[C@H]1C(=O)O)[C@@H](C)CC` [9GD, DR(nor)YIHP] (H-DR[Nle]YIHP-OH)?
Answer: scar upon gross observation (2 cm incision): no scar was apparent; wound closure (2 cm incision): complete; early inflammation and wound dehiscence [1]: reduced; overall scar formation [1]: increased; number of incisions that were free of scar [1]: increased; healing time [1]: accelerated; number of incisions with no scar by gross observations [1]: increased; healing [1, 3]: accelerated healing; scar formation [1, 4]: reduced scar formation; healing [1, 5]: did not accelerate healing; scar formation [1, 5]: did reduce scar formation
